# Test results published in PubChem BioAssay AID540275 (National Center for Advancing Translational Sciences (NCATS), 2011).
# Amino acid sequences for entries named in this document (tags omitted).
# UniProt Q8NER1, whole entry, looked up: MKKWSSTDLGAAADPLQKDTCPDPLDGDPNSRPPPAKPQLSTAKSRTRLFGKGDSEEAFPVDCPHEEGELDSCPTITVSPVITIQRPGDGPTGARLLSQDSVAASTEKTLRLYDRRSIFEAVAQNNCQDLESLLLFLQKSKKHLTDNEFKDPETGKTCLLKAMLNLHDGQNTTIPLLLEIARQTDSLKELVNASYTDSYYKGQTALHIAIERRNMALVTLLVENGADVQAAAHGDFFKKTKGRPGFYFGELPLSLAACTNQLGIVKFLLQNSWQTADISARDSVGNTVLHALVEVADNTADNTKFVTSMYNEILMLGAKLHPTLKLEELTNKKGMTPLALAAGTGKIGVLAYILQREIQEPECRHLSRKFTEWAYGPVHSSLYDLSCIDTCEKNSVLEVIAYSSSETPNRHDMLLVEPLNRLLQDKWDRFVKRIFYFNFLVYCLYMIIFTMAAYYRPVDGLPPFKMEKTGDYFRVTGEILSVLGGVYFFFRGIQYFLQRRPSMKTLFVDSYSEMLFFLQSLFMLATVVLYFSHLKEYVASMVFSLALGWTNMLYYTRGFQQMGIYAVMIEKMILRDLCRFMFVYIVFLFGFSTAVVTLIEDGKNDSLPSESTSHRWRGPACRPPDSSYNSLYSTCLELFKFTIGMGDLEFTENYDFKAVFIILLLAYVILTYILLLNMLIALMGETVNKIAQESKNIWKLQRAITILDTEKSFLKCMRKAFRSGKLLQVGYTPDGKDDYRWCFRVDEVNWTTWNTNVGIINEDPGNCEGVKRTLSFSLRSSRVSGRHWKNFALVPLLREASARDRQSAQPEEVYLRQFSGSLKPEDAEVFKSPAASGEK
# Out of some 320,000 compounds screened, about 620 (0.19%) were called active. Inconclusive means that the source gave no clear call. Such entries were picked first, then a sample of the others. No stated cut-off is given here; in the data, active means activation above about 80%; inconclusive means between about 30% and that limit; inactive means weaker than that.
# Target: Transient receptor potential cation channel subfamily V member 1 (Homo sapiens) (UniProt Q8NER1)
# Experiment: HTS Assay for Compounds that Act as Agonists of the Vanilloid Receptor 1; further: 0% is about no effect
# Details: TRPV1-expressing cells, Fluo-8 calcium influx, agonist mode; at 8.33 µM, hits give high values
# Procedure, shortened: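 TRPV1-expressing cells were cultured overnight at 35.5C and loaded with Fluo-8 calcium dye for 40 to 90 min at room temperature. After a 10 s baseline, compound was added and calcium influx was read kinetically for 3 min (ex 480/em 520 nm).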
row,SMILES,activation
1,Cc1ccc(-n2nc3c(N4CCC(C(=O)NCCc5ccco5)CC4)nnc(C)c3c2C)cc1,inconclusive: 43.3%
2,Cc1ccc(NC(=O)OCc2ccccc2S(C)=O)cc1 (centres undefined),inconclusive: 46.4%
3,O=C(/C=C/c1ccc(F)cc1)Nc1cc(S(=O)(=O)N2CCOCC2)ccc1N1CCCC1,inconclusive: 33.6%
4,COc1ccccc1/C=C/C1=NC(=C\N(C)C)/C(=O)O1,inconclusive: 34.2%
5,CCSc1nnc(-c2c[nH]c3ccccc23)o1,inconclusive: 30.5%
6,O=C1C(C=Nc2ccccc2)=C(O)c2ccccc21,inactive: 12.4%
7,COc1ccc(NS(=O)(=O)c2ccc(O)c(C(=O)OCC(=O)NC(C)C3CC4CCC3C4)c2)cc1 (centres undefined),inactive: -2.96%
8,CC(Sc1nc2ccccc2[nH]1)C(=O)NC1CCCCC1C (centres undefined),inconclusive: 67.3%
9,CCc1ccccc1OCc1nc2ccc(S(=O)(=O)N3CCOCC3)cc2[nH]1,inconclusive: 60.1%
10,CCC(C)[C@@H](C(=O)Nc1ccc(OC)c(OC)c1)N1Cc2ccccc2C1=O (some centres undefined),inconclusive: 42.2%
11,O=C1CC(c2ccccc2)CC(O)=C1C=Nc1ccccc1Cl (centres undefined),inconclusive: 38.4%
12,C/C(=N\Nc1ccccn1)c1ccc(N2CCOCC2)cc1,inconclusive: 36.3%
13,O=C1CN(C(=O)c2c(F)cccc2F)C(c2ccccc2)c2cc(Br)ccc2N1 (centres undefined),inconclusive: 50.3%
14,Cc1nnc2ccc(-c3cccc(NS(=O)(=O)c4ccccc4[N+](=O)[O-])c3)nn12,inactive: -4.11%
15,O=C(Nc1ccccc1)c1cc2ccccc2c(=O)s1,inconclusive: 51.1%
16,CCc1cc2c(=O)n3c(nc2s1)-c1[nH]c2ccc(OC)cc2c1CC3,inconclusive: 30.4%
17,O=C(N/N=C\C=C\c1ccc2c(c1)OCO2)c1ccc(F)cc1,inconclusive: 57.9%
18,CC(=O)Nc1ccc(C(=O)Nc2ccc3c(c2)OCO3)cc1,inactive: -1.27%
19,CCN(c1ccccc1)S(=O)(=O)c1ccc(OC)c(NC(=O)CCc2nc3ccccc3c(=O)[nH]2)c1,inactive: -1.09%
20,O=c1[nH]c(/C=C/c2ccccn2)nc2ccccc12,inactive: 1.49%
21,COc1ccc(NC(=O)Nc2ccc([N+](=O)[O-])cc2)cn1,inactive: 6.4%
22,CCCn1nnnc1NCc1ccc(N2CCCC2)cc1,inconclusive: 60.5%
23,COc1ccc(/C(C#N)=C/c2ccccn2)cc1,inconclusive: 49%

row,SMILES,activation
1,O=C(O)c1cc(N2CCOCC2)nc2ccccc12,inactive: -3.49%
2,CCC1=C(OC(=O)N(CC)CC)N2C(=O)OC(=NCC3CC3)[C@]2(Cc2ccccc2)[C@H]2C1=CC[C@H]1C(=O)N(CC)C(=O)[C@H]12,inconclusive: 41.1%
3,CCOc1ccc(C(=O)N/N=C/c2cc(Cl)ccc2[N+](=O)[O-])cc1,inactive: 6.12%
4,CCOC(=O)c1ccc(N/C=C/C(=O)c2ccccc2)cc1,inconclusive: 54.4%
5,O/N=C/c1cn(-c2ccccc2)nc1-c1cccnc1,inactive: 17.5%
6,CCOc1ccc(C(=O)c2ccc([N+](=O)[O-])cc2Cl)cc1,inconclusive: 31.9%
7,Cc1ccc(-c2csc(NC(=O)Cc3ccc(F)cc3)n2)o1,inconclusive: 38.5%
8,COc1ccc(CCNC(=O)c2cc(C3CC3)nc3c2cnn3C(C)C)cc1OC,inconclusive: 47.7%
9,CCc1nc(NCC2CCCO2)c2oc3ccccc3c2n1 (centres undefined),inconclusive: 40.1%
10,Cc1cc(-c2ccc(C(C)C)c(S(=O)(=O)N3CCOc4ccccc43)c2)on1,inactive: 19.5%
11,Cc1[nH]c2ccccc2c1C(=O)COC(=O)c1c(-c2ccccc2)noc1C,inconclusive: 34.9%
12,O=C(COC(=O)C12CC3CC(CC(C3)C1)C2)NCCCc1ccccc1,inconclusive: 50.1%
13,O=C(c1cc(-c2cccs2)nn1-c1ccccc1)N1CCN(S(=O)(=O)c2ccccc2)CC1,inconclusive: 52.3%
14,Cc1ccc(CN2CCC(CNC(=O)C3CCCN(c4ncnc5c4nc4n5CCCCC4)C3)CC2)cc1 (centres undefined),inconclusive: 43.3%
15,COc1ccc(NC2=NC(=S)N(c3cccc(C)c3)C23CCCCC3)cc1,inactive: 7.7%
16,O=C(NCCC1=CCCCC1)c1cc(-c2ccccn2)nc2ccccc12,inconclusive: 45.4%
17,Fc1ccc2[nH]c3c(NCc4ccccc4)ncnc3c2c1,inconclusive: 36%
18,O=C(Nc1ccc2c(c1)CCC2)c1ccc(F)cc1,inconclusive: 56.2%
19,O=C1CC(c2cccc(Cl)c2)Cc2nc(N3CCOCC3)ncc21 (centres undefined),inconclusive: 79.9%
20,O=C(NCc1ccccc1)C1CCN(c2nc(-c3ccccc3)nc3c2CCC3)CC1,inconclusive: 49.8%
21,CCOC(=O)C1CCCN(C(=S)Nc2cc(C)cc(C)c2)C1 (centres undefined),inactive: -0.186%
22,CCCCN=C1CC(C)(C)CC(=O)/C1=C(/O)CCC,inconclusive: 35%
23,CC1(C)Cc2c(ccc3ccccc23)/C(=C/C(=O)N2CCCCC2)N1,inconclusive: 72.7%

row,SMILES,activation
1,O=C(Cn1nnc2ccccc21)Nc1ccc(Cl)cn1,inactive: 1.47%
2,O=C(NC1C2CC3CC(C2)CC1C3)c1ccc2c(c1)OCO2 (centres undefined),inconclusive: 53.5%
3,COc1cc(C(=O)Nc2nnc(C3=COCCO3)o2)cc(OC)c1OC,inactive: -0.91%
4,CC1CN(C(=O)c2cc(S(=O)(=O)N3CCN(c4ccccc4)CC3)ccc2Cl)CC(C)O1 (centres undefined),inconclusive: 50.3%
5,CC(C)Sc1cc(N2CCOCC2)nc(-c2ccccc2)n1,inconclusive: 35.7%
6,Cc1cccc(C(=O)N2CCCC(Nc3ccc(F)c(F)c3)C2)n1 (centres undefined),inconclusive: 41.9%
7,CC(C)c1ccccc1NCC(=O)N1CCN(Cc2ccccc2)CC1,inconclusive: 60.8%
8,O=C(Nc1ccccc1)N1CCCC(c2nc(-c3ccc(F)cc3)no2)C1 (centres undefined),inconclusive: 38.5%
9,COc1ccccc1Oc1coc2cc(O)ccc2c1=O,inactive: -0.985%
10,CCCc1nn(C)c2c(=O)[nH]c(-c3cc(S(=O)(=O)Nc4ccc(NC(C)=O)cc4)ccc3OCC)nc12,inactive: 0.699%
11,COc1ccccc1CNC(=O)c1ccc(S(=O)(=O)N2CCCC2)cc1,inconclusive: 35.2%
12,COc1ccc(NC(=O)CN2C(=O)CSc3ccc(S(=O)(=O)N4CCC(C)CC4)cc32)cc1,inconclusive: 57.1%
13,Cc1ccc(-c2nc(-c3ccccn3)no2)cc1,inconclusive: 32.2%
14,O=[N+]([O-])c1ccc(/C=C/C2=NN(c3ccccc3)C(c3ccco3)C2)cc1 (centres undefined),inconclusive: 35.2%
15,N#Cc1ccc(/C=C/C(=O)c2ccc3c(c2)OCO3)cc1,inconclusive: 39.4%
16,CS(=O)(=O)c1ccc(C(=O)Nc2ccc(N3CCCCC3)cc2)c(Cl)c1,active: 83.4%
17,Cc1nnc(N2C(=O)C(O)=C(C(=O)c3ccco3)C2c2ccc(C(C)(C)C)cc2)s1 (centres undefined),inconclusive: 46.6%
18,CCn1nc(C)c(CNC(=O)c2cc(COc3ccccc3SC)on2)c1C,inconclusive: 41.5%
19,O=C(NC(=S)Nc1cccc(Cl)c1N1CCOCC1)c1cccs1,inconclusive: 33.8%
20,O=C(Cc1ccccc1F)Nc1ccc(S(=O)(=O)N2CCCCC2)cc1,inconclusive: 69.4%
21,O=C(O)Cn1c(CC(=O)N2CCCC2)nc2ccccc21,inactive: 0.862%
22,CC(C)Sc1nc(SCC(=O)NCc2ccco2)c2c3c(sc2n1)COC(C)(C)C3,inconclusive: 54.9%
23,CC#CCN1c2ccccc2[C@]23C[C@@H](C(=O)OC)N(C(=O)c4cc(C)oc4C)C2=NC(C(=O)OC)=C(C(=O)OC)[C@H]13,inconclusive: 31.9%

# 19 structures out of the list, arranged by count of non-hydrogen atoms, high to low:
row,SMILES,activation
23,CC#CCN1c2ccccc2[C@]23C[C@@H](C(=O)OC)N(C(=O)c4cc(C)oc4C)C2=NC(C(=O)OC)=C(C(=O)OC)[C@H]13,inconclusive: 31.9%
14,Cc1ccc(CN2CCC(CNC(=O)C3CCCN(c4ncnc5c4nc4n5CCCCC4)C3)CC2)cc1 (centres undefined),inconclusive: 43.3%
19,CCN(c1ccccc1)S(=O)(=O)c1ccc(OC)c(NC(=O)CCc2nc3ccccc3c(=O)[nH]2)c1,inactive: -1.09%
13,O=C(c1cc(-c2cccs2)nn1-c1ccccc1)N1CCN(S(=O)(=O)c2ccccc2)CC1,inconclusive: 52.3%
4,CC1CN(C(=O)c2cc(S(=O)(=O)N3CCN(c4ccccc4)CC3)ccc2Cl)CC(C)O1 (centres undefined),inconclusive: 50.3%
20,O=C(NCc1ccccc1)C1CCN(c2nc(-c3ccccc3)nc3c2CCC3)CC1,inconclusive: 49.8%
22,CC(C)Sc1nc(SCC(=O)NCc2ccco2)c2c3c(sc2n1)COC(C)(C)C3,inconclusive: 54.9%
13,O=C1CN(C(=O)c2c(F)cccc2F)C(c2ccccc2)c2cc(Br)ccc2N1 (centres undefined),inconclusive: 50.3%
11,Cc1[nH]c2ccccc2c1C(=O)COC(=O)c1c(-c2ccccc2)noc1C,inconclusive: 34.9%
14,O=[N+]([O-])c1ccc(/C=C/C2=NN(c3ccccc3)C(c3ccco3)C2)cc1 (centres undefined),inconclusive: 35.2%
20,O=C(Cc1ccccc1F)Nc1ccc(S(=O)(=O)N2CCCCC2)cc1,inconclusive: 69.4%
23,CC1(C)Cc2c(ccc3ccccc23)/C(=C/C(=O)N2CCCCC2)N1,inconclusive: 72.7%
19,O=C(NC(=S)Nc1cccc(Cl)c1N1CCOCC1)c1cccs1,inconclusive: 33.8%
17,O=C(N/N=C\C=C\c1ccc2c(c1)OCO2)c1ccc(F)cc1,inconclusive: 57.9%
12,C/C(=N\Nc1ccccn1)c1ccc(N2CCOCC2)cc1,inconclusive: 36.3%
15,N#Cc1ccc(/C=C/C(=O)c2ccc3c(c2)OCO3)cc1,inconclusive: 39.4%
4,COc1ccccc1/C=C/C1=NC(=C\N(C)C)/C(=O)O1,inconclusive: 34.2%
22,CCCCN=C1CC(C)(C)CC(=O)/C1=C(/O)CCC,inconclusive: 35%
23,COc1ccc(/C(C#N)=C/c2ccccn2)cc1,inconclusive: 49%

# (cont.)

row,SMILES,activation
1,CN(C)c1cccc(C(=O)NCc2ccccc2Cl)c1,inconclusive: 38.5%
2,COCc1c(C(=O)Nc2ccc(Cl)cc2F)oc2ccccc12,inconclusive: 51%
3,CCCSc1nnc(Nc2ccccc2C)s1,inconclusive: 44.3%
4,CC(=O)N1CCOc2ccc(S(=O)(=O)N3CCC(C)CC3)cc21,inactive: -2.91%
5,Cc1ccc(C)c(NC(=O)COC(=O)c2cccc3c2C(=O)c2ccccc2C3=O)c1,inactive: 3.61%
6,COC(=O)c1ccc(NC(=O)Nc2ccccc2C)cc1,inconclusive: 56.3%
7,Cc1ccc(C)c(OCc2cc(C(=O)N3CC[C@@H]4CCCC[C@H]4C3)no2)c1,inconclusive: 45.9%
8,COc1cccc(CN(CC(=O)NC2CCCC2)C(=O)Cn2nnc(-c3cccs3)n2)c1,inactive: -5.16%
9,O=C1C=C(c2ccc3c(c2)oc2ccccc23)C[C@@H](c2ccc3c(c2)OCO3)C1,inactive: -4.02%
10,Cc1cc(C)cc(NC(=O)C2CCCN(c3nccc(C)n3)C2)c1 (centres undefined),inconclusive: 47.4%
11,O=C(Nc1cccc([N+](=O)[O-])c1)N1CCc2ccccc2C1,inconclusive: 58.3%
12,C/C(=N\NC(=O)Cc1ccccc1)c1ccc(Br)s1,inconclusive: 59.8%
13,CCOC(=O)c1c(NC(=O)CCN2CCOCC2)sc(C)c1-c1ccccc1,inconclusive: 51.7%
14,CCOC(=O)c1cc2cc3ccccc3cc2oc1=O,inconclusive: 44%
15,COc1ccccc1CCNC(=O)Cc1cccs1,inconclusive: 46%
16,CCc1ccc(S(=O)(=O)/N=C2\C=C(NS(=O)(=O)c3ccccc3)C(=O)c3ccccc32)cc1,inactive: -2.81%
17,Clc1ccc(Cn2c(CN3CCCC3)nc3ccccc32)cc1,inactive: 27.4%
18,CC(COc1ccc(C(C)C)cc1)NC(=O)c1ccc(Br)o1 (centres undefined),inconclusive: 41.8%
19,Cc1csc2ncc(C(=O)NCc3ccco3)c(=O)n12,inactive: 0.761%
20,NS(=O)(=O)c1ccc(CNC(=O)c2cc(-c3ccccc3)nc3ccccc23)cc1,inactive: 28.1%
